Test results taken from PubChem BioAssay AID248 (DTP/NCI, 2004).
The list shows only some results of the screen, not a fair sample: it gathers tests that were run many times, whatever their T/C, doses with no T/C, and many T/C values between a quarter and a half above the control. Further doses and runs are listed elsewhere. T/C is the treated group as % of the vehicle group. Some entries give survivors of the animals treated and no T/C: the source files T/C as zero there, which appears to mark a toxic dose or a test without result, not a measured value. Some survivor counts are full or nearly so, which does not show that the dose was tolerated: survival well below the control is almost never listed, so the zero probably covers shortened survival too. Survivors were counted at the toxicity check, usually on the fifth day, unless a day is given; later deaths do not show. Schedules are NCI's codes, read here as Q, the interval in days (D) or hours (H), X, the number of doses. Some schedule codes hold Z or #, which are not explained here. Where survival is the endpoint, this PubChem deposit counts one and a half times the control or more as active, and values a quarter to a half above the control carry no call in these data; other NCI protocols may use other cut-offs.

System: L1210 leukemia ip in BDF1 mice, survival T/C
Test: NCI In Vivo Anticancer Drug Screen. Data for tumor model L1210 Leukemia (intraperitoneal) in B6D2F1 (BDF1) mice
Conditions: T/C endpoint: mean survival time, higher T/C = longer survival
[1] = dose: 150.0 mg/kg/injection, schedule: Q01DX001 (ip), vehicle: saline
[2] = dose: 300.0 mg/kg/injection, schedule: Q01DX001 (ip), vehicle: saline
[3] = dose: 25.0 mg/kg/injection, schedule: Q01DX009 (ip), vehicle: Klucel (hydroxypropylcellulose) (HPC)
[4] = dose: 50.0 mg/kg/injection, schedule: Q01DX009 (ip), vehicle: Klucel (hydroxypropylcellulose) (HPC)
[5] = dose: 100.0 mg/kg/injection, schedule: Q01DX009 (ip), vehicle: Klucel (hydroxypropylcellulose) (HPC)
[6] = dose: 200.0 mg/kg/injection, schedule: Q01DX009 (ip), vehicle: Klucel (hydroxypropylcellulose) (HPC)
[7] = dose: 400.0 mg/kg/injection, schedule: Q01DX009 (ip), vehicle: Klucel (hydroxypropylcellulose) (HPC)
[8] = dose: 100.0 mg/kg/injection, schedule: Q01DX009 (ip), vehicle: saline
[9] = dose: 200.0 mg/kg/injection, schedule: Q04DX003 (ip), vehicle: saline
[10] = dose: 400.0 mg/kg/injection, schedule: Q04DX003 (ip), vehicle: saline
[11] = dose: 100.0 mg/kg/injection, schedule: Q04DX003 (ip), vehicle: saline
[12] = dose: 25.0 mg/kg/injection, schedule: Q04DX003 (ip), vehicle: saline
[13] = dose: 400.0 mg/kg/injection, schedule: Q04DX002 (ip), vehicle: saline with Tween-80
[14] = dose: 200.0 mg/kg/injection, schedule: Q04DX003 (ip), vehicle: saline with Tween-80
[15] = dose: 400.0 mg/kg/injection, schedule: Q04DX003 (ip), vehicle: saline with Tween-80

With `CCNC(C1CCCCC1)C(C)OC(=O)c1ccc(N)cc1` (centres undefined) the survivor count [1] was 1 of 6 and the survivor count [2] was 0 of 6.
For `Nc1ncnc2c1cnn2C1OC(CO)C(O)C1O` (centres undefined), the T/C (dose: 13.0 mg/kg/injection, schedule: Q01DX015 (ip), vehicle: carboxymethylcellulose (CMC)) was 138 % of control, the T/C (dose: 20.0 mg/kg/injection, schedule: Q01DX015 (ip), vehicle: carboxymethylcellulose (CMC)) was 126 % of control and the T/C (dose: 30.0 mg/kg/injection, schedule: Q01DX015 (ip), vehicle: carboxymethylcellulose (CMC)) was 127 % of control. For the same compound, the T/C (dose: 45.0 mg/kg/injection, schedule: Q01DX015 (ip), vehicle: carboxymethylcellulose (CMC)) was 139 % of control, the T/C (dose: 200.0 mg/kg/injection, schedule: Q01DX001 (ip), vehicle: carboxymethylcellulose (CMC)) was 130 % of control and the T/C (dose: 400.0 mg/kg/injection, schedule: Q01DX001 (ip), vehicle: carboxymethylcellulose (CMC)) was 128 % of control.
With `O=C(c1cccc([N+](=O)[O-])c1)c1[nH]c2sc3c(c2c1O)CCCC3` the survivor count [3] was 6 of 6, the survivor count [4] was 0 of 6 and the survivor count [5] was 0 of 6. For the same compound, the survivor count [6] was 0 of 6 and the survivor count [7] was 0 of 6.
With `O=C(Cl)C1CCCCC1` the survivor count (dose: 100.0 mg/kg/injection, schedule: Q01DX015 (ip), vehicle: saline) was 6 of 6 and the survivor count (dose: 200.0 mg/kg/injection, schedule: Q01DX015 (ip), vehicle: saline) was 1 of 6.
With `NC1CCc2ccccc2-c2ccccc21` (centres undefined) the survivor count (dose: 75.0 mg/kg/injection, schedule: Q01DX001 (ip), vehicle: saline) was 3 of 6, the survivor count [1] was 0 of 6 and the survivor count [2] was 0 of 6.
`CCCc1ccccc1O` was tested, and the survivor count (dose: 400.0 mg/kg/injection, schedule: Q04DX003 (ip), vehicle: alcohol) was 1 of 6.
For `CCCCCOC(CN)C(Cl)(Cl)Cl` (centres undefined), the survivor count [8] was 4 of 6, the survivor count [9] was 0 of 6 and the survivor count [10] was 0 of 6.
`N#C/C(=N/O)c1ccccn1` was tested, and the survivor count [7] was 1 of 6.
For `CCOc1ccc(/C=N/Nc2ccc([N+](=O)[O-])cc2)cc1OC`, the survivor count (dose: 100.0 mg/kg/injection, schedule: Q04DX003 (ip), vehicle: saline sonified) was 6 of 6 and the survivor count (dose: 200.0 mg/kg/injection, schedule: Q04DX003 (ip), vehicle: saline sonified) was 6 of 6.
For `COc1ccc2c(c1)C(=O)CCN2`, the survivor count [7] was 1 of 6.
With `CC(=O)c1cccc(NC(=O)Nc2ccc(F)c([N+](=O)[O-])c2)c1` the survivor count [7] was 4 of 6.
`O=[N+]([O-])c1ccc(Cl)c2ccccc12` was tested, and the survivor count (dose: 50.0 mg/kg/injection, schedule: Q01DX009 (ip), vehicle: saline with Tween-80) was 3 of 3.
For `O=[N+]([O-])c1cccc(-[n+]2cc([O-])on2)c1`, the survivor count [5] was 5 of 6, the survivor count [6] was 0 of 6 and the survivor count (dose: 400.0 mg/kg/injection, schedule: Q04DX003 (ip), vehicle: Klucel (hydroxypropylcellulose) (HPC)) was 2 of 6.
With `CCS/C(N)=N\N` the survivor count [11] was 0 of 6.
For `C1CN2CCN1CC2.[Cl][Ni+][Cl]`, the survivor count (dose: 3.12 mg/kg/injection, schedule: Q04DX003 (ip), vehicle: saline) was 6 of 6, the survivor count (dose: 6.25 mg/kg/injection, schedule: Q04DX003 (ip), vehicle: saline) was 6 of 6 and the survivor count (dose: 12.5 mg/kg/injection, schedule: Q04DX003 (ip), vehicle: saline) was 6 of 6. For the same compound, the survivor count (dose: 25.0 mg/kg/injection, schedule: Q01DX009 (ip), vehicle: saline) was 4 of 6, the survivor count [12] was 6 of 6 and the survivor count (dose: 32.0 mg/kg/injection, schedule: Q04DX003 (ip), vehicle: saline) was 4 of 6. The survivor count (dose: 50.0 mg/kg/injection, schedule: Q04DX003 (ip), vehicle: saline) was 3 of 6, the survivor count [11] was 0 of 6 and the survivor count [9] was 0 of 6. The survivor count [10] was 0 of 6.
For `CCC(CC)C[N+](C)(C)C`, the survivor count [2] was 1 of 6.
`COc1coc(CO)cc1=O` was tested, and the survivor count (dose: 200.0 mg/kg/injection, schedule: Q01DX009 (ip), vehicle: saline with Tween-80) was 6 of 6.
With `CC(=O)NC1CCC(/C=C(\C#N)C2CCC(C)CC2)CC1` (centres undefined) the survivor count [13] was 3 of 3.
`O=C(O)CCC(=O)CC[N+](=O)[O-]` was tested, and the survivor count [2] was 1 of 6.
For `COc1cc(/C=N/NC(=O)CCCCCCCCC(=O)N/N=C/c2ccc(O)c(OC)c2)ccc1O`, the survivor count [13] was 3 of 6.
For `Cc1ccc([N+](=O)[O-])cc1NC(=O)Nc1cccc2c(O)cccc12`, the survivor count [7] was 6 of 6.
`ONc1ncnc2nc[nH]c12` was tested, and the T/C [8] was 125 % of control, the T/C (dose: 120.0 mg/kg/injection, schedule: Q01DX009 (ip), vehicle: Klucel (hydroxypropylcellulose) (HPC)) was 125 % of control and the T/C (dose: 240.0 mg/kg/injection, schedule: Q01DX009 (ip), vehicle: Klucel (hydroxypropylcellulose) (HPC)) was 139 % of control. The survivor count (dose: 400.0 mg/kg/injection, schedule: Q01DX009 (ip), vehicle: saline) was 4 of 6 and the survivor count (dose: 800.0 mg/kg/injection, schedule: Q01DX009 (ip), vehicle: saline) was 0 of 6.
In the case of `CCCCCC(=C/c1ccccc1)/C=N/N=C(N)N`, the survivor count (dose: 120.0 mg/kg/injection, schedule: Q01DX Z (ip), vehicle: saline) is reported as 0 of 6 and the survivor count (dose: 240.0 mg/kg/injection, schedule: Q01DX Z (oral), vehicle: saline) is reported as 3 of 6.
In the case of `COc1cc(CC2=NCCc3cc(OC)c(OCc4ccccc4)cc32)ccc1OCc1ccccc1`, the survivor count (dose: 400.0 mg/kg/injection, schedule: Q01DX009 (ip), vehicle: saline with Tween-80) is reported as 3 of 6.
In the case of `NC1=N/C(=C/[N+](=O)[O-])c2ccccc21`, the survivor count [12] is reported as 3 of 4, the survivor count (dose: 100.0 mg/kg/injection, schedule: Q04DX002 (ip), vehicle: saline) is reported as 0 of 3 and the survivor count (dose: 200.0 mg/kg/injection, schedule: Q04DX002 (ip), vehicle: saline) is reported as 1 of 3. For the same compound, the survivor count (dose: 400.0 mg/kg/injection, schedule: Q04DX002 (ip), vehicle: saline) was 0 of 3.
With `CON=C1CCC(C(C)(C)C)CC1` (centres undefined) the survivor count (dose: 150.0 mg/kg/injection, schedule: Q01DX001 (ip), vehicle: carboxymethylcellulose (CMC)) was 1 of 6 and the survivor count (dose: 300.0 mg/kg/injection, schedule: Q01DX001 (ip), vehicle: carboxymethylcellulose (CMC)) was 2 of 6.
For `NCCCCC(N)C(=O)NC(CCCN=C(N)N)C(=O)O` (centres undefined), the survivor count (dose: 100.0 mg/kg/injection, schedule: Q04DX003 (ip), vehicle: water) was 6 of 6, the survivor count (dose: 200.0 mg/kg/injection, schedule: Q04DX003 (ip), vehicle: water) was 6 of 6 and the survivor count (dose: 400.0 mg/kg/injection, schedule: Q01DX009 (ip), vehicle: water) was 3 of 6. The survivor count (dose: 400.0 mg/kg/injection, schedule: Q04DX003 (ip), vehicle: water) was 6 of 6.
With `CC(=O)NC(c1ccccc1)C(C)C` (centres undefined) the survivor count (dose: 400.0 mg/kg/injection, schedule: Q01DX001 (ip), vehicle: saline with Tween-80) was 0 of 3.
For `Clc1ccc2nc(CBr)cnc2c1`, the T/C [3] was 143 % of control, the survivor count [3] was 6 of 6 and the T/C [4] was 134 % of control. The survivor count [4] was 3 of 6, the survivor count [5] was 3 of 6 and the survivor count (dose: 100.0 mg/kg/injection, schedule: Q01DX009 (ip), vehicle: saline with Tween-80) was 1 of 6. For the same compound, the survivor count [14] was 4 of 6 and the survivor count [15] was 1 of 6.
For `CC(C)CN(CC(=O)N1CC(=O)Nc2ccccc21)CC(C)C`, the survivor count (dose: 50.0 mg/kg/injection, schedule: Q01DX009 (ip), vehicle: saline) was 6 of 6.
With `CC(C)C(=O)[O][Sn]([CH2]c1ccccc1)([CH2]c1ccccc1)[CH2]c1ccccc1` the survivor count [14] was 3 of 6 and the survivor count [15] was 0 of 6.
In the case of `N#Cc1ccc(P(=O)(O)O)cc1`, the survivor count [2] is reported as 3 of 6.
